This assay has as its target recombinant human ROR1 (human) (UniProt Q01973). Description: phage display panning and ELISA on coated recombinant human ROR1. In general terms: ELISA stands for enzyme-linked immunosorbent assay.

Protein sequences, listed by entry. Tags and fused reporters are not part of them. Residues count along the entry.
UniProt Q01973, residues 30-403: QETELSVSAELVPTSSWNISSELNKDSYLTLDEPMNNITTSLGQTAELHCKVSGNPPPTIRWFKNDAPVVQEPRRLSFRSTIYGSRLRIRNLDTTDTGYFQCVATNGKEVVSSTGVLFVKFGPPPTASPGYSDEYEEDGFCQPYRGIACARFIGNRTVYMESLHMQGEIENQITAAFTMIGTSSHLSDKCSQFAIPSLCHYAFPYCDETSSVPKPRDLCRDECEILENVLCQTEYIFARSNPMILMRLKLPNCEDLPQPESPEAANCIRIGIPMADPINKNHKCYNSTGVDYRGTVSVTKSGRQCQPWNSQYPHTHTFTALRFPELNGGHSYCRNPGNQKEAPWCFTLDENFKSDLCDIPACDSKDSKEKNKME

Results are given in words; binding and its absence hold for the method and conditions named. Some results given as binding are weak or reduced against the parent protein; the word gives no strength.

This passage reports binding results from patent US20220389094A1.

B1: human anti-ROR1 ScFv binder ScFv9 (scFv, not shown: small tags and cut ends)
scFv: QAAQVQLQQSGAEVKKPGSSVKVSCKASGGTFSSYAISWVRQAPGQGLEWMGWINPNSGGTNYAQRFQGRVTMTRDTSISTAYMELSRLRSDDTAVYYCASYNDAFDIWGQGTLVTVSSGGGGSGGGGSGGGGSNFMLTQPHSVSESPGKTVTISCTRSSGSIASNYVQWYQQRPGSAPTIVIYEDDQRPSGVPDRFSGSIDTSSNSASLTISGLQSEDEADYYCQSYEPGNGVFGGGTKVTVL
As to B1, the binding entry is listed as “binds”.

B2: human anti-ROR1 ScFv binder ScFv4 (scFv, not shown: small tags and cut ends)
scFv: QVQLQESGPGLVKPSETLSLTCTVSGGSISSSSYYWGWIRQPPGKGLEWIGSIYYSGSTYYNPSLKSRVTIPVDTSKNQFSLKLSSVTAADTAVYYCARHLGGDAFDIWGQGTTVTVSSGGGGSGGGGSGGGGSLPVLTQPPSVSVAPGQTARITCGGNNIGSKSVHWYQQKPGQAPVLVVYDDSDRPSGIPERFSGSNSGNTATLTISGTQAMDEADYFCQSYDSSNPVVFGGGTQLTVL
Consider B2, for which the binding result is listed as “binds”.
